Measured values as given in PMC9859756.
No constants are given. Whether binding was seen depends on the method and setting. In cells and extracts the contact can be indirect. Some entries that bind do so weakly or less than the wild type.

Biological target: T1, human ZBP1 (transient expression, Extended Data Fig. 2c) (human) (UniProt Q9H171)
T1 sequence: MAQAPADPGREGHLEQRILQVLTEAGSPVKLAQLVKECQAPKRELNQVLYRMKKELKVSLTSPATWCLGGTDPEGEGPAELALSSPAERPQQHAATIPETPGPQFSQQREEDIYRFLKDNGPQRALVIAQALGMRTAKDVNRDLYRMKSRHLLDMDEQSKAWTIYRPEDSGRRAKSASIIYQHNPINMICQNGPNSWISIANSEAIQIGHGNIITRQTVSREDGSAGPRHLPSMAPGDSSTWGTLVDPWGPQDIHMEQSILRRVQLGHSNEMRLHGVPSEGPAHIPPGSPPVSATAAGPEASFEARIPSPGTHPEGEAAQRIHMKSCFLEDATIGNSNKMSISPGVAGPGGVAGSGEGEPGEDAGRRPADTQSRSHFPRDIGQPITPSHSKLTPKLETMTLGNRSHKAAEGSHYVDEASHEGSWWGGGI
Test: co-IP; HEK 293T cells transfected with the indicated FLAG or untagged constructs; lysates immunoprecipitated with anti-FLAG antibody, immunoblot (Extended Data Fig. 2c)

B1: human OASL (transient expression, Extended Data Fig. 2c) (protein, UniProt Q15646 1-514)
chain: MALMQELYSTPASRLDSFVAQWLQPHREWKEEVLDAVRTVEEFLRQEHFQGKRGLDQDVRVLKVVKVGSFGNGTVLRSTREVELVAFLSCFHSFQEAAKHHKDVLRLIWKTMWQSQDLLDLGLEDLRMEQRVPDALVFTIQTRGTAEPITVTIVPAYRALGPSLPNSQPPPEVYVSLIKACGGPGNFCPSFSELQRNFVKHRPTKLKSLLRLVKHWYQQYVKARSPRANLPPLYALELLTIYAWEMGTEEDENFMLDEGFTTVMDLLLEYEVICIYWTKYYTLHNAIIEDCVRKQLKKERPIILDPADPTLNVAEGYRWDIVAQRASQCLKQDCCYDNRENPISSWNVKRARDIHLTVEQRGYPDFNLIVNPYEPIRKVKEKIRRTRGYSGLQRLSFQVPGSERQLLSSRCSLAKYGIFSHTHIYLLETIPSEIQVFVKNPDGGSYAYAINPNSFILGLKQQIEDQQGLPKKQQQLEFQGQVLQDWLGLGIYGIQDSDTLILSKKKGEALFPAS
binding: binds
